This experiment deals with T1, DarB-Strep (Bacillus subtilis) (UniProt O31698).
T1 sequence: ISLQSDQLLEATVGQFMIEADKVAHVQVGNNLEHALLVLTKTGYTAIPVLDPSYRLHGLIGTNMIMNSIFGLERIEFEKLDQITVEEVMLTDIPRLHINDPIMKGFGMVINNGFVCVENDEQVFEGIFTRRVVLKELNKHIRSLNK
The experiment is described as follows: pull-down.

These are yes or no findings as the source states them, for the method shown. Binding seen in cells or lysates may run through a third protein.

Regarding “SasA (endogenous) (Bacillus subtilis (endogenous in GP3429)) (enzyme)”, the binding result was “no binding”.

Turning to “SasB (endogenous) (Bacillus subtilis (endogenous in GP3429)) (enzyme)”, the binding result is recorded as “no binding”.

The values are drawn from publication doi:10.1101/2020.08.27.268672 (bioRxiv, 2020).
